# Experimental data taken from the supplement of paper PMC12823440, “Inhibitors supercharge kinase turnover through native proteolytic circuits” (Nature, 2025).
# Protein sequences, listed by entry. Tags and fused reporters are not part of them.
# UniProt Q15418, whole entry: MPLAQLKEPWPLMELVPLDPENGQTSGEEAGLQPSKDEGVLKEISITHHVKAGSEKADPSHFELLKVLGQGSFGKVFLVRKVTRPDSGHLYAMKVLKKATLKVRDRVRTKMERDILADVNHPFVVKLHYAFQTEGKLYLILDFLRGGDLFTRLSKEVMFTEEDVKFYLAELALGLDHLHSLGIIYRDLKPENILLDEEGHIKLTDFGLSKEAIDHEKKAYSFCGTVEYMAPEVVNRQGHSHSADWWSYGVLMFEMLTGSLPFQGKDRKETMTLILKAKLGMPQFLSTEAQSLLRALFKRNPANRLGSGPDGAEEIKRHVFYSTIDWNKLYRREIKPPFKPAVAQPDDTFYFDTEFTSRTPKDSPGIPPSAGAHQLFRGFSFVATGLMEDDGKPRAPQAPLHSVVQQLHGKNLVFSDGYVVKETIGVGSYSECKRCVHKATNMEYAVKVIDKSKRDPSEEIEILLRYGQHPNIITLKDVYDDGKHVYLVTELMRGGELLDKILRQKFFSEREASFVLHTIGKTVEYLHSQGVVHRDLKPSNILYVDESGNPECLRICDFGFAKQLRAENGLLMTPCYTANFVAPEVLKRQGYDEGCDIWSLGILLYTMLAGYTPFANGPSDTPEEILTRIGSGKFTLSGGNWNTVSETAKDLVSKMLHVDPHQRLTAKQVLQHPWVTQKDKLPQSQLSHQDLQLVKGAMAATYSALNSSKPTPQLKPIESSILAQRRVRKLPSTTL
# UniProt Q9NYA1, whole entry: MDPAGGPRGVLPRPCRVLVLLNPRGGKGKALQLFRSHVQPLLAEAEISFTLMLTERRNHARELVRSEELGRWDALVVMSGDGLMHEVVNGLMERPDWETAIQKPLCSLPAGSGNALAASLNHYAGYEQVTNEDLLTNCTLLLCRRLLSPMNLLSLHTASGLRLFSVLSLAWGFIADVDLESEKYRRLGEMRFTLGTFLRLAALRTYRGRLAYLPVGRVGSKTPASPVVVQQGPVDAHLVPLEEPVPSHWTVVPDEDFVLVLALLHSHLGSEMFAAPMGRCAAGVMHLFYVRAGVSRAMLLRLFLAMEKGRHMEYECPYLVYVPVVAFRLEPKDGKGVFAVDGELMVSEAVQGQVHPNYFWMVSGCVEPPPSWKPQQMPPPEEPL
# Structures can show the parent of a compound that is named as a salt. This is one part of the list. Hit calls seldom repeat between salt and free forms of one compound.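 Kinases, fused to nanoluciferase, were expressed in K562 cells; luminescence was measured every 4 h from 2 to 18 h as percent of control (DMSO = 100%, positive control = 0%). A time point is decreased if signal falls significantly (2 sigma). Hits were called by the authors by a rule that is not shown; the count of time points alone does not decide it.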
# Target: RPS6KA1 (UniProt Q15418)
# Assay: number of time points (of 5) at which kinase-Nluc abundance scored as decreased, DMSO-normalised (count); higher = more persistent destabilization
# Conditions: K562; 2-18 h
row,Compound,number of time points
1,O=C(c1ccc(Nc2nccc(-c3cc4ccccc4s3)n2)cc1)N1CCC(N2CCCC2)CC1 (2.5 µM),0
2,Cc1ccc(-c2nn(C(C)(C)CNC(=O)c3ccncc3)c3ncnc(N)c23)cc1 (2.5 µM),0
3,O=C(O)c1ccc(-c2c[nH]c3ncc(-c4ccccc4)cc23)cc1C1CCCC1 (2.5 µM),0
4,CCOc1nc(Nc2ccc(C(=O)N3CCOCC3)cc2OC)nc2[nH]ccc12 [LRRK2 inhibitor 1] (2.5 µM),0
5,CN(CC(=O)N(Cc1ccc(C2CCCCC2)cc1)c1ccc(C(=O)O)c(O)c1)S(=O)(=O)c1c(F)c(F)c(F)c(F)c1F (2.5 µM),0
6,Nc1nc2cc(-c3ccc4ncc(C(=O)N5CCOCC5)n4c3)ccc2o1 [Serabelisib] (10 µM),0
7,OCCN(CCO)c1ccc(C(c2ccc(Cl)cc2)c2ccc(N(CCO)CCO)cc2)cc1 (10 µM),0
8,O=c1nc(N2CCOCC2)oc2c(-c3cccc4c3sc3ccccc34)cccc12 (10 µM),0
9,c1ccc(-c2nn3c(c2-c2ccnc4cc(OCCN5CCOCC5)ccc24)CCC3)nc1 (10 µM),0
10,O=C(Nc1ccc(Cl)c(Cl)c1)Nc1ccc2nnsc2c1 (10 µM),0
11,N#C/C(=C(/N)Sc1ccc(N)cc1)c1ccccc1C(F)(F)F (10 µM),0
12,O=c1ccoc2cc(O)ccc12 [7-Hydroxy-4H-chromen-4-one] (10 µM),0
13,COc1cc(C(=O)N2CCC(N3CCN(C)CC3)CC2)ccc1Nc1ncc2c(n1)N(C)c1ccccc1C(=O)N2C (10 µM),0
14,CC(=O)Nc1nc2ccc(-c3cnc(C)c(NC(=O)OC4CCCCC4)c3)cc2s1 (10 µM),0
15,O=C1NC(=O)C(c2cn(-c3ccccc3)nc2-c2ccc(F)cc2)N1 (stereo not given) (10 µM),0
16,CCCCNC(=N)NC(=N)N [Buformin (hydrochloride)] (2.5 µM),0

row,Compound,number of time points
1,C[C@H]1[C@H](OC(=O)CCC(=O)O)O[C@@H]2O[C@@]3(C)CC[C@H]4[C@H](C)CC[C@@H]1[C@@]24OO3 [Artesunate] (2.5 µM),0
2,COc1ncc(Nc2ncc([C@@H](C)N3CCN(S(C)(=O)=O)CC3)cc2-c2nc(C)nc(N)n2)cc1F (10 µM),0
3,COC1(C(=O)N[C@@H](C)c2ccc(-n3cc(F)cn3)nc2)CCC(c2nc(C)cc(Nc3cc(C)[nH]n3)n2)CC1 (stereo partly drawn) [trans-Pralsetinib] (2.5 µM),0
4,CC(=O)NCCc1c[nH]c2ccc(O)cc12 [N-Acetyl-5-hydroxytryptamine] (10 µM),0
5,O=[N+]([O-])c1ccc(Sc2cccc[n+]2[O-])c2nonc12 (2.5 µM),0
6,COc1ccc(CNc2nc(N(CCO)CCO)nc3c2ncn3C(C)C)cc1 (2.5 µM),0
7,CC(CCc1ccccn1)(CCc1ccccn1)C(=O)c1ccccc1 (10 µM),0
8,[O-][n+]1cccc(-c2nc3c(Cl)cccc3cc2[C@@H](Nc2ncnc3cccnc23)C(F)(F)F)c1 [Seletalisib] (10 µM),0
9,Cc1cc2cc(Oc3ccnc(Nc4cccc(CS(=O)(=O)NCCN(C)C)c4)n3)ccc2[nH]1 [Sulfatinib] (10 µM),0
10,O=C1NC(=O)C(c2cnc3ccccn23)=C1c1cn2c3c(cc(F)cc13)CN(C(=O)N1CCCCC1)CC2 (2.5 µM),0
11,Cc1ccc(-c2ncn(-c3ccc(Nc4nccc(-c5cccc(N6CCOCC6)c5)n4)cc3)n2)cn1 (10 µM),0
12,COc1ccc2c(c1OC)OC1c3ccc(O)cc3OCC21 (stereo not given) [Methylnissolin] (10 µM),0
13,Cn1cc(-c2ccc3nnc(C(F)(F)c4ccc5ncccc5c4)n3n2)cn1 (10 µM),0
14,Nc1ncc(-c2ccc(C(=O)N3CCNCC3)cc2)nc1-c1ccc(C(F)(F)F)cc1 (10 µM),0
15,CN(C)Cc1cccc(N=C(c2ccccc2)c2c(O)[nH]c3cc(C(=O)N(C)C)ccc23)c1 (10 µM),0

# Target: SPHK1 (UniProt Q9NYA1)
# Assay: as above
# Conditions: K562; 2-18 h
row,Compound,number of time points
1,C[C@H]1Cc2ccccc2N1C(=O)Cc1nc(N2CCOCC2)cc(=O)[nH]1 (2.5 µM),0
2,CC(C)c1cc(/C=C(\C#N)C(N)=O)cc(C(C)C)c1O (10 µM),0
3,COc1c(C)c(C(=O)c2ccc(N)c(C(=O)O)c2)n2ccccc12 (10 µM),0
4,C[C@@H]1CCc2ncc(F)cc2[C@H]2CCCN2c2ccn3ncc(c3n2)C(=O)N1 [Selitrectinib] (10 µM),0
5,CCN(C)C(=O)c1ccc2c(C(=Nc3ccc(CN4CCCCC4)cc3)c3ccccc3)c(O)[nH]c2c1 (2.5 µM),0
6,O=C(CO)N1CCC(c2n[nH]c(-c3ccc(Cl)cc3)c2-c2ccncn2)CC1 (10 µM),0
7,C[C@@H]1COCCN1c1cc(C2([S@](C)(=N)=O)CC2)nc(-c2cc[nH]c3nccc2-3)n1 [Ceralasertib] (2.5 µM),0
8,CCOC(=O)c1c2c3c(cccc3[nH]c1=O)C(=O)c1ccccc1-2 (10 µM),0
9,O=C(c1ccc(Nc2nccc(-c3cc4ccccc4s3)n2)cc1)N1CCC(N2CCCC2)CC1 (2.5 µM),0
10,Cc1ccc(-c2nn(C(C)(C)CNC(=O)c3ccncc3)c3ncnc(N)c23)cc1 (2.5 µM),0
11,O=C(O)c1ccc(-c2c[nH]c3ncc(-c4ccccc4)cc23)cc1C1CCCC1 (2.5 µM),0
12,CCOc1nc(Nc2ccc(C(=O)N3CCOCC3)cc2OC)nc2[nH]ccc12 [LRRK2 inhibitor 1] (2.5 µM),0
13,CN(CC(=O)N(Cc1ccc(C2CCCCC2)cc1)c1ccc(C(=O)O)c(O)c1)S(=O)(=O)c1c(F)c(F)c(F)c(F)c1F (2.5 µM),0
14,Nc1nc2cc(-c3ccc4ncc(C(=O)N5CCOCC5)n4c3)ccc2o1 [Serabelisib] (10 µM),0
15,OCCN(CCO)c1ccc(C(c2ccc(Cl)cc2)c2ccc(N(CCO)CCO)cc2)cc1 (10 µM),0
16,O=c1nc(N2CCOCC2)oc2c(-c3cccc4c3sc3ccccc34)cccc12 (10 µM),0
17,c1ccc(-c2nn3c(c2-c2ccnc4cc(OCCN5CCOCC5)ccc24)CCC3)nc1 (10 µM),0
18,O=C(Nc1ccc(Cl)c(Cl)c1)Nc1ccc2nnsc2c1 (10 µM),0
19,N#C/C(=C(/N)Sc1ccc(N)cc1)c1ccccc1C(F)(F)F (10 µM),0
20,O=c1ccoc2cc(O)ccc12 [7-Hydroxy-4H-chromen-4-one] (10 µM),0

row,Compound,number of time points
1,COc1cc(C(=O)N2CCC(N3CCN(C)CC3)CC2)ccc1Nc1ncc2c(n1)N(C)c1ccccc1C(=O)N2C (10 µM),0
2,CC(=O)Nc1nc2ccc(-c3cnc(C)c(NC(=O)OC4CCCCC4)c3)cc2s1 (10 µM),0
3,O=C1NC(=O)C(c2cn(-c3ccccc3)nc2-c2ccc(F)cc2)N1 (stereo not given) (10 µM),0
4,CCCCNC(=N)NC(=N)N [Buformin (hydrochloride)] (2.5 µM),0
5,C[C@H]1[C@H](OC(=O)CCC(=O)O)O[C@@H]2O[C@@]3(C)CC[C@H]4[C@H](C)CC[C@@H]1[C@@]24OO3 [Artesunate] (2.5 µM),1
6,COc1ncc(Nc2ncc([C@@H](C)N3CCN(S(C)(=O)=O)CC3)cc2-c2nc(C)nc(N)n2)cc1F (10 µM),0
7,COC1(C(=O)N[C@@H](C)c2ccc(-n3cc(F)cn3)nc2)CCC(c2nc(C)cc(Nc3cc(C)[nH]n3)n2)CC1 (stereo partly drawn) [trans-Pralsetinib] (2.5 µM),0
8,CC(=O)NCCc1c[nH]c2ccc(O)cc12 [N-Acetyl-5-hydroxytryptamine] (10 µM),0
9,O=[N+]([O-])c1ccc(Sc2cccc[n+]2[O-])c2nonc12 (2.5 µM),0
10,COc1ccc(CNc2nc(N(CCO)CCO)nc3c2ncn3C(C)C)cc1 (2.5 µM),0
11,CC(CCc1ccccn1)(CCc1ccccn1)C(=O)c1ccccc1 (10 µM),0
12,[O-][n+]1cccc(-c2nc3c(Cl)cccc3cc2[C@@H](Nc2ncnc3cccnc23)C(F)(F)F)c1 [Seletalisib] (10 µM),0
13,Cc1cc2cc(Oc3ccnc(Nc4cccc(CS(=O)(=O)NCCN(C)C)c4)n3)ccc2[nH]1 [Sulfatinib] (10 µM),0
14,O=C1NC(=O)C(c2cnc3ccccn23)=C1c1cn2c3c(cc(F)cc13)CN(C(=O)N1CCCCC1)CC2 (2.5 µM),0
15,Cc1ccc(-c2ncn(-c3ccc(Nc4nccc(-c5cccc(N6CCOCC6)c5)n4)cc3)n2)cn1 (10 µM),0
16,COc1ccc2c(c1OC)OC1c3ccc(O)cc3OCC21 (stereo not given) [Methylnissolin] (10 µM),0
17,Cn1cc(-c2ccc3nnc(C(F)(F)c4ccc5ncccc5c4)n3n2)cn1 (10 µM),0
18,Nc1ncc(-c2ccc(C(=O)N3CCNCC3)cc2)nc1-c1ccc(C(F)(F)F)cc1 (10 µM),0
19,CN(C)Cc1cccc(N=C(c2ccccc2)c2c(O)[nH]c3cc(C(=O)N(C)C)ccc23)c1 (10 µM),0
